## Library screen at single concentrations

Values are the deposited “Percent Effect”, in %. The controls that fix the scale are not given in the record; negative values are as filed. The compounds are a random part of those screened.

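Whole-parasite assay of Trypanosoma brucei over 72 hours; the read-out is not stated. Tested at 30 µM. Direction is inferred from retests: higher values go with stronger inhibition. Values scatter widely below zero; nearly all retest evidence comes from the higher of the two concentrations used. Of about 64,000 compounds tested this way, about 940 (1.5%) reached 50% or more in at least one test.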

SMILES | Percent Effect
CN(CCC(O)c1ccccc1)Cc1ccccc1C#N (centres unmarked) | 2.33
Cc1cc(CN(C)C(=O)c2cc3c([nH]c2=O)CCCC3=O)no1 | -21.53
COc1c(C2CCCN2CC(=O)NCc2ccccn2)c(C)nn1C (centres unmarked) | 3.084
CCNc1ncc(C(=O)NC(c2ccccc2)c2ccco2)cn1 (centres unmarked) | -56.55
COc1cccc(CCNS(=O)(=O)c2ccc(NC(C)=O)cc2)c1 | 47.18
O=C(COc1cc(Cl)cc(Cl)c1)NCc1nncn1C1CC1 | 4.234
COc1ccc(CN2CCC3(CCCN(c4ncc(F)cn4)C3)C2)cc1.O=C(O)C(F)(F)F (centres unmarked) | 46.33
CCN(C(C)=O)C1CCN(c2nccc(CCC(F)(F)F)n2)C1 (centres unmarked) | 2.862
COCCN1CCC(c2cncc(-c3ccccc3C)n2)CC1 | 5.283
CCn1nc(C(C)C)cc1C(=O)NCC1CCCN(c2ccccn2)C1 (centres unmarked) | -24.89
CCN(CCS(=O)(=O)c1ccc(Cl)cc1)Cc1ccc(OC)c(OC)c1 | 6.53
COc1ccccc1OCCC(=O)N1CCCC1Cn1cccn1 (centres unmarked) | -14.76
FC(F)(F)C1CN(c2nc(-c3ccccc3)no2)CCO1 (centres unmarked) | -24.88
Cc1ccc(N(CC(=O)NCc2nnc3n2CCC3)S(C)(=O)=O)cc1 | -23.62
Cc1ccc(-n2cc(C(=O)N3CCn4c(C)nnc4C3)nn2)cc1 | -18.84
CN(C1CCc2ccccc2C1)S(C)(=O)=O (centres unmarked) | -15.07
O=C(C1CCN(c2cccnn2)C1)N1CCOCC1 (centres unmarked) | -26.79
N#Cc1ccnc(N2CCN(C(=O)c3ccc4c(c3)CCO4)CC2)c1 | -26.68
Cc1ccccc1OCCC(=O)N1CCC(c2nncn2C)CC1 | -13.21
N#CC1COCCN1C(=O)c1ccc2[nH]cnc2c1 (centres unmarked) | -27.05
Cc1nn2c(N3CCC(C#N)CC3)cc(-c3ccccc3)nc2c1C | -41.51
CN(Cc1ccc(F)cc1)CC1(O)CCN(C(=O)c2cccn2C)C1 (centres unmarked) | 23.95
COc1cccc(C(=O)N2CCN(C(=O)CCCn3ccnc3)CC2)c1 | -75.68
CNc1nc(C(=O)N2CCC3(CCCN(C)C3=O)C2)cs1 (centres unmarked) | 12.73
CCc1nc(CN2CCCC(NCc3cccc(C(N)=O)c3)C2)no1 (centres unmarked) | -9.098
Cc1ccccc1CC(=O)N1CCc2c(ncnc2N2CCOCC2)C1 | -23.81
O=C(NCCO)NCC(c1ccccc1)N1CCc2sccc2C1 (centres unmarked) | -4.343
COc1c(CNC(C)C(=O)NC2CCCC2)c(C(C)C)nn1C (centres unmarked) | -5.353
CC(NC(=O)c1cccs1)C(=O)NS(=O)(=O)Cc1ccc(C#N)cc1 (centres unmarked) | -4.983
COc1ccc(C(=O)N(C)Cc2ncc(C)c(OC)c2C)c(OC)c1 | -2.883
Cc1n[nH]cc1CNCC(c1ccsc1)N(C)C (centres unmarked) | 15.44
Fc1ccccc1-c1nnn(CCCc2nn[nH]n2)n1 | -28.8
CN(Cc1nnc(-c2cccs2)o1)Cc1nc2c(s1)CCCC2 | -1.102
CCCn1nc2c(cc1=O)CN(Cc1nc(C)c(C)o1)CC2 | 11.31
CCC(=O)NC1CCN(c2cccc(OC(F)(F)F)c2)C1=O (centres unmarked) | -16.97
COc1ccc(C)cc1NC(=O)C1CSc2ncc(C)c(=O)n2C1 (centres unmarked) | -8.182
Cc1cc(C2CCC2)nc(N(C)Cc2cc(-c3ccccn3)no2)n1 | -28.73
CN1CCN(C2CCN(Cc3noc(-c4ccccc4)n3)CC2)C1=O | -39.05
Cc1cnn(CCNCC(O)c2cccc(Br)c2)c1 (centres unmarked) | -14.46
Cc1cn2cc(C(=O)NC3CCCN(c4ncccn4)C3)ccc2n1 (centres unmarked) | -6.213
[H][C@]12CCCC[C@]1([H])N(C(=O)N1CCOCC1)CC[C@@]2(O)c1ccccc1 | 13.93
COC(=O)c1ccc(S(=O)(=O)NCc2cccnc2N(C)C)cc1 | -61.04
Cc1nc(CN2CCCC2C(=O)OCc2ccccc2)oc1C (centres unmarked) | -40.28
Cc1n[nH]c(C)c1CCC(=O)N(C)Cc1cn[nH]c1-c1ccc(F)cc1 | -65.29
COc1ccc(C(=O)Nc2ccccc2-c2ccc(=O)n(C)n2)cc1 | 3.014
Cc1cccc(=O)n1CCCNc1nc(N(C)C)nc2c1CCNC2 | -59.09
CNc1nc(C2CCCN(C(=O)C(C)(C)OC)C2)nc2c1CN(C)CC2 (centres unmarked) | -16.55
CCn1cc2c(n1)CN(C(=O)c1ccncc1)CC2COCC1CC1.O=C(O)C(F)(F)F (centres unmarked) | -12.87
COCCCC(=O)N(C)c1ccc(F)c(Cl)c1 | -38.37
Cc1ccc(S(=O)(=O)NCCCN2CCC(O)CC2)c(F)c1 | -31.14
CC(C)NC(=O)[C@@H]1C[C@H](N)CN1C(=O)C1(c2ccc(Cl)cc2)CCC1 | -21.47
CCN(Cc1cnn(C)c1)C[C@H]1CC[C@@H](Cc2ccc(C#N)cc2)O1 | -27.53
Cc1ccc(C(=O)Nc2nc(C)no2)cc1 | 24.35
Cc1nc(C(C)(C)NC(=O)Nc2ccc(C#N)cc2)no1 | -51.33
Cn1c(Cn2cccn2)nnc1C1CCCN(c2ccncc2)C1 (centres unmarked) | -0.1491
Cc1ccc(C(CNCc2ccc(C#N)cc2)N2CCOCC2)s1 (centres unmarked) | -5.572
O=C(O)C(F)(F)F.[H][C@]12CCC[C@@]1(COCC1CC1)CN(Cc1cnn(C)c1)C2 | -86.68
CCc1nccn1-c1cccc(C2CCCN2)n1.Cl.Cl (centres unmarked) | -13.27
Cc1cnc(C)c(N2CCC(c3nccn3Cc3cscn3)CC2)n1 | -44.66
COc1ccccc1CN1CC(OC)CN(C(=O)OCC(C)C)CC1=O (centres unmarked) | -4.443
COCCN1CC(C(=O)N(C)Cc2ccc(Cl)s2)CC1=O (centres unmarked) | 9.622
O=C(NCc1nnc2ccccn12)N1CCc2sccc2C1 | 14.63
COc1coc(CN2CCCC(CCc3ccccc3F)C2)cc1=O (centres unmarked) | -23.96
Cc1cc(NC(=O)CN2CCOC(CN(C)C)C2)n(C)n1 (centres unmarked) | -5.404
COCCN1CCC2(CCN(c3ncccn3)CC2)C1=O.O=C(O)C(F)(F)F | -23.64

For reference, 7 entries once more:

Cc1n[nH]cc1CNCC(c1ccsc1)N(C)C (centres unmarked) gave 15.44%.
CCCn1nc2c(cc1=O)CN(Cc1nc(C)c(C)o1)CC2 gave 11.31%.
Cc1ccc(N(CC(=O)NCc2nnc3n2CCC3)S(C)(=O)=O)cc1 gave -23.62%.
Cc1nc(C(C)(C)NC(=O)Nc2ccc(C#N)cc2)no1 gave -51.33%.
CCN(CCS(=O)(=O)c1ccc(Cl)cc1)Cc1ccc(OC)c(OC)c1 gave 6.53%.
CCC(=O)NC1CCN(c2cccc(OC(F)(F)F)c2)C1=O (centres unmarked) gave -16.97%.
CCN(Cc1cnn(C)c1)C[C@H]1CC[C@@H](Cc2ccc(C#N)cc2)O1 gave -27.53%.

Source: ChEMBL document CHEMBL3988442, “University of Dundee, Small-Polar-MMV Screening Library” (2021).